The name of at least one read-out is uncertain. Non-standard residues stand in square brackets, D forms with d. Residues, ends and D or L forms follow the SMILES beside them. dPhe(4-NH2) = Nc1ccc(C[C@@H](N)C(=O)O)cc1; dPhe(4-Cl) = N[C@H](Cc1ccc(Cl)cc1)C(=O)O; Phe(4-NH2) = Nc1ccc(C[C@H](N)C(=O)O)cc1; d2Nal = N[C@H](Cc1ccc2ccccc2c1)C(=O)O; Lys(iPr) = CC(C)NCCCC[C@H](N)C(=O)O; d3Pal = N[C@H](Cc1cccnc1)C(=O)O
Assay: Impact of sodium caprate (C10) on gelation of acyline in water (recovery of acyline)
Type: physicochemical

CC(=O)Nc1ccc(C[C@H](NC(=O)[C@H](CO)NC(=O)[C@@H](Cc2cccnc2)NC(=O)[C@@H](Cc2ccc(Cl)cc2)NC(=O)[C@@H](Cc2ccc3ccccc3c2)NC(C)=O)C(=O)N[C@H](Cc2ccc(NC(C)=O)cc2)C(=O)N[C@@H](CC(C)C)C(=O)N[C@@H](CCCCNC(C)C)C(=O)N2CCC[C@H]2C(=O)N[C@H](C)C(N)=O)cc1 [acyline, Ac-D2Nal-D4Cpa-D3Pal-Ser4Aph(Ac)-D4Aph(Ac)-Leu-ILys-Pro-DAla-NH2] (Ac-[d2Nal][dPhe(4-Cl)][d3Pal]S[Phe(4-NH2)](Ac)[dPhe(4-NH2)](Ac)L[Lys(iPr)]P[dA]-NH2)
recovery of acyline (sodium caprate about 50 mg/mL): ~100%
recovery of acyline (sodium caprate at and above its CMC (~20 mg/mL)): sudden and significant increase
recovery of acyline (sodium caprate below 10 mg/mL): significantly decreases

Source: patent US8999383B2, “Compositions of GnRH related compounds and processes of preparation” (Merrion Research III Limited, priority 2008, dated 2015)
